Patent publication US11065203B2, “Liposomal compositions and uses of same” (Technion Research & Development Foundation Limited, priority 2009, dated 2021)

Test: Proteomics analysis (trypsin digest, LC-MS/MS) of hMSC ghosts and derived CDLs, conditioned or unconditioned by PC3 medium
Design: species or system human
Details: LC-MS/MS peak area per protein; for Ratio of expression Cond. CDLs/Cond. Ghosts: CDLs derived from conditioned hMSCs versus conditioned ghosts; for Ratio of expression Cond Ghosts/Ghosts: hMSC ghosts conditioned by PC3 medium versus unconditioned ghosts

Substance | Ratio of expression Cond. CDLs/Cond. Ghosts [%] | Ratio of expression Cond Ghosts/Ghosts [%]
Q96AY3 | 1 | 100
P00367 | 7 | 100
P07996 | 2 | 129
Q8NBS9 | 3 | 100
Q9H0U4 | 1 | 161
P15311 | 3 | 100
P09493 | 27 | 66
O00571 | 7 | 100
P35749 | 0 | 100
Q9UBI6 | 8 | 100
P62820 | 5 | 100
P09382 | 28 | 45
P46940 | 1 | 133
P54709 | 3 | 100
Q99714 | 2 | 100
O14880 | 2 | 100
P62937 | 9 | 54
O96008 | 3 | 100

Substance | Ratio of expression Cond. CDLs/Cond. Ghosts [%] | Ratio of expression Cond Ghosts/Ghosts [%]
P35222 | 6 | 100
Q13813 | 5 | 100
Q99653 | 3 | 100
P21333 | 6 | 100
Q9NYU2 | 1 | 140
Q12905 | 4 | 100
Q9Y490 | 5 | 34
Q12884 | 3 | 100
P49368 | 11 | 100
P53597 | 3 | 100
Q53EP0 | 2 | 302
P55809 | 2 | 100
O00264 | 6 | 100
P06748 | 9 | 100
Q9ULV4 | 3 | 131
P23528 | 12 | 100
O95831 | 4 | 176
P08962 | 25 | 100
